Laboratory results: the supplement of paper PMC4604168 (melanoma cell lines)
The other results are listed elsewhere or left out. Repeats are few or missing, and single values can be far off.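 Cells were imaged in 1,536-well plates, and nuclei stained with an antibody against cleaved PARP were counted against all DNA-stained nuclei to give the apoptosis fraction. Screening doses were chosen to leave most cells alive, and resting and induced cleaved-PARP levels differ strongly between cell lines.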

What follows are compounds tested on CBRC013 (line from a melanoma biopsy) (assay: cleaved PARP positive nuclei fraction relative to DMSO control; melanoma cells; higher = more apoptosis). Settings: library dose: low library concentration; 72 h.

Structure (SMILES)	cleaved PARP positive nuclei fraction [%]
O=C(/C=C/c1cccnc1)NCCCCC1CCN(C(=O)c2ccccc2)CC1 + CC(C)(C)c1cnc(CSc2cnc(NC(=O)C3CCNCC3)s2)o1 [SNS-032] (first compound 0.01 µM, partner dose 0.01 µM)	108
Cc1cn(-c2cc(NC(=O)c3ccc(C)c(Nc4nccc(-c5cccnc5)n4)c3)cc(C(F)(F)F)c2)cn1 [nilotinib] + O=C(CCCCCCC(=O)Nc1ccccc1)NO [vorinostat] (first compound 0.2 µM, partner dose 0.08 µM)	88.6
N#CC[C@H](C1CCCC1)n1cc(-c2ncnc3[nH]ccc23)cn1 [ruxolitinib] + O=C(O)c1ccc(-c2c[nH]c3ncc(-c4ccccc4)cc23)cc1C1CCCC1 [GSK650394] (first compound 1 µM, partner dose 0.16 µM)	174
O=C(Nc1cc(C(F)(F)F)cc(C(F)(F)F)c1)c1cc(Cl)ccc1O + CO[C@@H]1[C@H](N(C)C(=O)c2ccccc2)C[C@H]2O[C@]1(C)n1c3ccccc3c3c4c(c5c6ccccc6n2c5c31)C(=O)NC4 [Midostaurin] (first compound 0.016 µM, partner dose 0.08 µM)	143
N#CC[C@H](C1CCCC1)n1cc(-c2ncnc3[nH]ccc23)cn1 [ruxolitinib] + Cc1ccc(NC(=O)c2cccc(N(C)C)c2)cc1NC(=O)c1ccc(O)cc1 [ZM336372] (first compound 1 µM, partner dose 2 µM)	76
N#CC[C@H](C1CCCC1)n1cc(-c2ncnc3[nH]ccc23)cn1 [ruxolitinib] + CC1(C)NC(=O)N(c2ccc([N+](=O)[O-])c(C(F)(F)F)c2)C1=O [nilutamide] (first compound 1 µM, partner dose 1 µM)	130
CC[C@]1(O)C[C@H]2CN(CCc3c([nH]c4ccccc34)[C@@](C(=O)OC)(c3cc4c(cc3OC)N(C=O)[C@H]3[C@@](O)(C(=O)OC)[C@H](OC(C)=O)[C@]5(CC)C=CCN6CC[C@]43[C@@H]65)C2)C1 [vincristine] + O=C(Nc1cccc(Cl)c1)Nc1ncc(CCNc2ncnc3ccsc23)s1 [SNS314] (first compound 0.0001 µM, partner dose 0.0008 µM)	119
Cc1cn(-c2cc(NC(=O)c3ccc(C)c(Nc4nccc(-c5cccnc5)n4)c3)cc(C(F)(F)F)c2)cn1 [nilotinib] + CC(C)(C)c1cnc(CSc2cnc(NC(=O)C3CCNCC3)s2)o1 [SNS-032] (first compound 0.2 µM, partner dose 0.01 µM)	114
COc1cc([C@@H]2c3cc4c(cc3[C@@H](O[C@@H]3O[C@@H]5CO[C@@H](C)O[C@H]5[C@H](O)[C@H]3O)[C@H]3COC(=O)[C@H]23)OCO4)cc(OC)c1O [etoposide] + NC(=O)Nc1cc(-c2cccc(F)c2)sc1C(=O)N[C@H]1CCCNC1 [AZD7762] (first compound 0.02 µM, partner dose 0.02 µM)	141
Cc1cc(Nc2cc(N3CCN(C)CC3)nc(Sc3ccc(NC(=O)C4CC4)cc3)n2)n[nH]1 [Tozasertib] + Cn1cncc1[C@@](N)(c1ccc(Cl)cc1)c1ccc2c(c1)c(-c1cccc(Cl)c1)cc(=O)n2C [tipifarnib] (first compound 0.006 µM, partner dose 0.01 µM)	101
Cc1ccc(Nc2nccc(N(C)c3ccc4c(C)n(C)nc4c3)n2)cc1S(N)(=O)=O [Pazopanib] + Cn1cncc1[C@@](N)(c1ccc(Cl)cc1)c1ccc2c(c1)c(-c1cccc(Cl)c1)cc(=O)n2C [tipifarnib] (first compound 0.4 µM, partner dose 0.01 µM)	106
Cc1cc(Nc2cc(N3CCN(C)CC3)nc(Sc3ccc(NC(=O)C4CC4)cc3)n2)n[nH]1 [Tozasertib] + Cc1ccc(NC(=O)c2cccc(N(C)C)c2)cc1NC(=O)c1ccc(O)cc1 [ZM336372] (first compound 0.006 µM, partner dose 2 µM)	99.8
CC[C@]1(O)C[C@H]2CN(CCc3c([nH]c4ccccc34)[C@@](C(=O)OC)(c3cc4c(cc3OC)N(C=O)[C@H]3[C@@](O)(C(=O)OC)[C@H](OC(C)=O)[C@]5(CC)C=CCN6CC[C@]43[C@@H]65)C2)C1 [vincristine] + CC1(C)NC(=O)N(c2ccc([N+](=O)[O-])c(C(F)(F)F)c2)C1=O [nilutamide] (first compound 0.0001 µM, partner dose 1 µM)	108
N#CC[C@H](C1CCCC1)n1cc(-c2ncnc3[nH]ccc23)cn1 [ruxolitinib] + CO[C@@H]1[C@H](N(C)C(=O)c2ccccc2)C[C@H]2O[C@]1(C)n1c3ccccc3c3c4c(c5c6ccccc6n2c5c31)C(=O)NC4 [Midostaurin] (first compound 1 µM, partner dose 0.08 µM)	162
CCCCCCCCCCCCCCCCCCOP(=O)([O-])OC1CC[N+](C)(C)CC1 [Perifosine] + COc1cc2c(Oc3ccc4[nH]c(C)cc4c3F)ncnc2cc1OCCCN1CCCC1 [cediranib] (first compound 0.4 µM, partner dose 0.4 µM)	112
N#CC[C@H](C1CCCC1)n1cc(-c2ncnc3[nH]ccc23)cn1 [ruxolitinib] + COc1cc2c(Oc3ccc4[nH]c(C)cc4c3F)ncnc2cc1OCCCN1CCCC1 [cediranib] (first compound 1 µM, partner dose 0.4 µM)	133
O=C(/C=C/c1cccnc1)NCCCCC1CCN(C(=O)c2ccccc2)CC1 + O=C(O)c1ccc(-c2c[nH]c3ncc(-c4ccccc4)cc23)cc1C1CCCC1 [GSK650394] (first compound 0.01 µM, partner dose 0.16 µM)	101
Cc1cc(Nc2cc(N3CCN(C)CC3)nc(Sc3ccc(NC(=O)C4CC4)cc3)n2)n[nH]1 [Tozasertib] + NCC(=O)Nc1ccc(-n2nc(C(F)(F)F)cc2-c2ccc3c(ccc4ccccc43)c2)cc1 [OSU03012] (first compound 0.006 µM, partner dose 1 µM)	155
Cc1cn(-c2cc(NC(=O)c3ccc(C)c(Nc4nccc(-c5cccnc5)n4)c3)cc(C(F)(F)F)c2)cn1 [nilotinib] + CO[C@@H]1[C@H](N(C)C(=O)c2ccccc2)C[C@H]2O[C@]1(C)n1c3ccccc3c3c4c(c5c6ccccc6n2c5c31)C(=O)NC4 [Midostaurin] (first compound 0.2 µM, partner dose 0.08 µM)	148
Cc1ccc(Nc2nccc(N(C)c3ccc4c(C)n(C)nc4c3)n2)cc1S(N)(=O)=O [Pazopanib] + CN(NC(=O)CC(=O)NN(C)C(=S)c1ccccc1)C(=S)c1ccccc1 [STA4783] (first compound 0.4 µM, partner dose 0.006 µM)	126
COc1cc([C@@H]2c3cc4c(cc3[C@@H](O[C@@H]3O[C@@H]5CO[C@@H](C)O[C@H]5[C@H](O)[C@H]3O)[C@H]3COC(=O)[C@H]23)OCO4)cc(OC)c1O [etoposide] + Cc1ccc(NC(=O)c2cccc(N(C)C)c2)cc1NC(=O)c1ccc(O)cc1 [ZM336372] (first compound 0.02 µM, partner dose 2 µM)	69.8
O=C(/C=C/c1cccnc1)NCCCCC1CCN(C(=O)c2ccccc2)CC1 + CN(NC(=O)CC(=O)NN(C)C(=S)c1ccccc1)C(=S)c1ccccc1 [STA4783] (first compound 0.01 µM, partner dose 0.006 µM)	140

Pulled one by one from the list above, 2 records:
Structure (SMILES)	cleaved PARP positive nuclei fraction [%]
O=C(/C=C/c1cccnc1)NCCCCC1CCN(C(=O)c2ccccc2)CC1 + O=C(O)c1ccc(-c2c[nH]c3ncc(-c4ccccc4)cc23)cc1C1CCCC1 [GSK650394] (first compound 0.01 µM, partner dose 0.16 µM)	101
COc1cc([C@@H]2c3cc4c(cc3[C@@H](O[C@@H]3O[C@@H]5CO[C@@H](C)O[C@H]5[C@H](O)[C@H]3O)[C@H]3COC(=O)[C@H]23)OCO4)cc(OC)c1O [etoposide] + Cc1ccc(NC(=O)c2cccc(N(C)C)c2)cc1NC(=O)c1ccc(O)cc1 [ZM336372] (first compound 0.02 µM, partner dose 2 µM)	69.8
